Measured data: PubChem BioAssay AID652259 (Drosophila RNAi Screening Center, 2013)
In all, the deposit lists about 22,000 reagents; below is an unselected part of those with a known target gene and a result. In the full data, 233 (1.1%) got an active call. 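Light values are raw, unnormalised plate reads; the ratio scores behind the reporter calls were not deposited.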 Reagents against one gene are numbered here. Not given: the amount of reagent, the time to read-out, the dose of the treatment.

Assay: 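Genome-wide hunt for genes that control Wingless pathway activity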 (primary screen)
Cell system: Drosophila clone 8 imaginal disc epithelial cells
Reagent: long dsRNA against Drosophila genes
Treatment: pathway stimulated by co-transfected Wingless expression plasmid
Measured: 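Firefly luciferase from a tcf-site Wingless reporter, measured alongside co-transfected Renilla luciferase that tracks transfection; pathway stimulated by a Wingless plasmid; the firefly-to-Renilla ratio is not deposited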
Direction: firefly reporter light: higher = more Wg reporter light, before normalisation; Renilla control light: higher = more transfected or surviving cells
Call rule: 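a knock-down is a candidate when at least two out of four statistical tests show it departing from its plate mean; one test alone signals a weak candidate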
Calls: active = candidate regulator (raises or lowers reporter); inactive = not a candidate

no.	Gene	dsRNA no.	reporter change call, replicate 1	firefly reporter light, replicate 1	firefly reporter light, replicate 2	Renilla control light, replicate 1	Renilla control light, replicate 2	call
1	CG3342 (GeneID 31586)	1		2586	5226	752	1973	inactive
2	CG30447 (GeneID 246621)	1		19314		9400		inactive
3	CG9399 (GeneID 41157)	1		14468		2358		inactive
4	CG4115 (GeneID 41499)	1		14640		3226		inactive
5	CG33287 (GeneID 2768986)	1		4.33e5	4.72e5	1.65e5	1.63e5	inactive
6	CG31406 (GeneID 318715)	1		3056		1541		inactive
7	Atx2 (GeneID 41883)	1	Wg reporter activity raised	7324		443		active
8	CG14742 (GeneID 12797890)	1		21158		7764		inactive
9	Rgl (GeneID 44115)	1		6188		2050		inactive
10	ACXD (GeneID 38284)	1		2221		1376		inactive
11	CG8915 (GeneID 32715)	1		2916	9191	1051	3377	inactive
12	CG1640 (GeneID 32292)	1		3482	9609	893	2704	inactive
13	RpL7-like (GeneID 34625)	1		3941	7739	1513	2515	inactive
14	CG17108 (GeneID 34471)	1		3028	7410	1853	4332	inactive
15	CG17108 (GeneID 34471)	2		5.20e5	5.41e5	2.13e5	2.33e5	inactive
16	opm (GeneID 32435)	1		4182	10579	1366	5121	inactive
17	opm (GeneID 32435)	2		4.38e5	5.65e5	1.79e5	2.24e5	inactive
18	Cirl (GeneID 35846)	1		15242		1577		inactive
19	Cirl (GeneID 35846)	2		8.51e5	9.76e5	1.03e5	1.14e5	inactive
20	Gdap1 (GeneID 38597)	1		1510	7161	961	2384	inactive
21	Sgs7 (GeneID 47198)	1		4696		3113		inactive
22	veli (GeneID 43003)	1		22508		20450		inactive
23	Gba1b (GeneID 318721)	1		4.26e5	5.06e5	2.12e5	1.99e5	inactive
24	CG10029 (GeneID 40883)	1		19056		7164		inactive
25	br (GeneID 44505)	1		3576		1504		inactive
26	br (GeneID 44505)	2		22802		16736		inactive
27	br (GeneID 44505)	3		32268	6.82e5	10902	3.34e5	inactive
28	br (GeneID 44505)	4		24685		9388		inactive
29	CG11779 (GeneID 42298)	1		2484	6084	568	2340	inactive
30	CG15537 (GeneID 43614)	1		8595		3072		inactive
31	Dop2R (GeneID 33007)	1		27897		10897		inactive
32	Dop2R (GeneID 33007)	2		28763		13927		inactive
33	PPO2 (GeneID 35910)	1		7543		2167		inactive
34	CG2310 (GeneID 43473)	1		7666		2258		inactive
35	Obp58b (GeneID 37607)	1		1953	8039	637	2760	inactive
36	Tfb1 (GeneID 36598)	1	Wg reporter activity raised	32242		2182		active
37	CG18540 (GeneID 37097)	1		8905		1796		inactive
38	ZIPIC (GeneID 43566)	1		2272	7403	1122	2443	inactive
39	robl37BC (GeneID 35166)	1		2784	9649	992	3569	inactive
40	Mcm5 (GeneID 41296)	1		12587		3303		inactive
41	ImpL1 (GeneID 39499)	1		4874		1563		inactive
42	PIG-S (GeneID 42979)	1		3219	7835	904	1176	inactive
43	PIG-S (GeneID 42979)	2		19633		16450		inactive
44	PIG-S (GeneID 42979)	3		3177	6903	1643	1763	inactive
45	ReepB (GeneID 36569)	1		13590		4412		inactive
46	djl (GeneID 40839)	1		10813		2056		inactive
47	CheB42a (GeneID 2768721)	1		8.39e5	8.12e5	4.07e5	3.89e5	inactive
48	ari-2 (GeneID 37542)	1		2192	6625	684	2500	inactive
49	CG8197 (GeneID 35912)	1		2609	8720	1056	3658	inactive
50	CstF50 (GeneID 43734)	1		1120	5366	836	2525	inactive
51	snama (GeneID 37857)	1		7716		3224		inactive
52	CCHa1-R (GeneID 37004)	1		6434		2298		inactive
53	CCHa1-R (GeneID 37004)	2		8588		2420		inactive
54	ACXA (GeneID 53432)	1		2488	8298	1334	4486	inactive

Entries listed so far with an active call, once more:
Gene	dsRNA no.	reporter change call, replicate 1	firefly reporter light, replicate 1	firefly reporter light, replicate 2	Renilla control light, replicate 1	Renilla control light, replicate 2	call
Atx2 (GeneID 41883)	1	Wg reporter activity raised	7324		443		active
Tfb1 (GeneID 36598)	1	Wg reporter activity raised	32242		2182		active

Continued:
no.	Gene	dsRNA no.	reporter change call, replicate 1	firefly reporter light, replicate 1	firefly reporter light, replicate 2	Renilla control light, replicate 1	Renilla control light, replicate 2	call
55	PGRP-SC1b (GeneID 35861)	1		7389		3256		inactive
56	CG33159 (GeneID 318901)	1		6227		844		inactive
57	CG13231 (GeneID 36169)	1		7623		5315		inactive
58	CG9308 (GeneID 37507)	1		2465	5848	765	2536	inactive
59	Sema5c (GeneID 37066)	1		5642		2221		inactive
60	vnd (GeneID 31003)	1		5112		2299		inactive
61	vnd (GeneID 31003)	2		21607		17477		inactive
62	vnd (GeneID 31003)	3		7.55e5	7.25e5	3.71e5	3.24e5	inactive
63	mRpL4 (GeneID 49425)	1		6117		1680		inactive
64	Tmem43 (GeneID 38881)	1		1041	2969	1322	1696	inactive
65	CtsL1 (GeneID 36546)	1		15945		10548		inactive
66	CtsL1 (GeneID 36546)	2		10400		3969		inactive
67	Daao2 (GeneID 33955)	1		17911		6275		inactive
68	alpha-Est10 (GeneID 40896)	1		9153		2269		inactive
69	ND-39 (GeneID 40272)	1		5344		2290		inactive
70	CG18636 (GeneID 2768923)	1		2314	6424	1072	3349	inactive
71	Pgcl (GeneID 30984)	1		20432		14673		inactive
72	CG12851 (GeneID 37993)	1		2931	5751	666	2125	inactive
73	Muc55B (GeneID 37057)	1		6.66e5	7.43e5	4.01e5	3.13e5	inactive
74	CG5909 (GeneID 43274)	1		5561		2397		inactive
75	CG15480 (GeneID 34723)	1		2816	8293	1605	3596	inactive
76	CG17612 (GeneID 33639)	1		12716		4969		inactive
77	Rchy1 (GeneID 33901)	1		2936	6489	816	987	inactive
78	HBS1 (GeneID 117365)	1		18804		5170		inactive
79	CG17359 (GeneID 39549)	1		6669		2570		inactive
80	Pomp (GeneID 35342)	1		9808		3079		inactive
81	Prosbeta2R1 (GeneID 31511)	1		17984		10539		inactive
82	CG1998 (GeneID 32300)	1		25616		15836		inactive
83	CG42717 (GeneID 10178897)	1		4408		1658		inactive
84	Arms (GeneID 37433)	1		4024	25616	1616	13210	inactive
85	Arms (GeneID 37433)	2		16328		8131		inactive
86	Arms (GeneID 37433)	3		11200		2708		inactive
87	Arms (GeneID 37433)	4		1731	3296	674	1817	inactive
88	CG16890 (GeneID 34781)	1		15337		4726		inactive
89	Sec15 (GeneID 42499)	1		28550		7645		inactive
90	mgr (GeneID 41365)	1		10820		3496		inactive
91	Kul (GeneID 43501)	1		4752		2228		inactive
92	CG31100 (GeneID 41075)	1		13089		3606		inactive
93	CG31100 (GeneID 41075)	2		16753		4185		inactive
